Data from patent publication US20230089267A1, “Compositions and Methods For Reducing Immune Intolerance and Treating Autoimmune Disorders” (Lapix Therapeutics, Inc., priority 2021, published 2023).
Some of these results come from one statement about several compounds together.

Test system: FoxP3+/CD4+ T-cells in splenocytes from naïve C57BL/6 mice
Assay: In vitro dose-response, percent FoxP3+/CD4+ T-cells in murine splenocytes
Type: cell-based
Details: in words
Procedure: All animal studies were conducted under IACUC number B2020-91 and in compliance with Tufts University/Tufts Medical Center & Human Nutrition Research Center on Aging. Animals were housed four in a cage and had access to food and water ad libitum. Anti-FoxP3 and anti-CD4 for flow cytometry were obtained from eBioscience. Compounds 1-3 were formulated with 10% DMPC in PBS. PS liposomes were synthesized at a 30:70 PS:lipid molar ratio.
Splenocytes from naïve C57BL/6 mice were stained with CFSE, seeded at 2×10^5 cells/well, and dosed with each compound from 1e^−4 μM to 3.0e^−9 μM using a log 2 dilution scheme. Cells were incubated for 72 hours before phenotyping for FoxP3+/CD4+ T-cells. Flow cytometer analysis was performed to assess changes in percent FoxP3+/CD4+ T-cells as a function of compound and dose. Concentration versus response was fitted to a 4-parameter, log-logistic model using the “dre” package in “R”. Both EC50 and EC90 were obtained by model fitting.
Cells were observed via a microscope at the end of the incubation period. All cells looked healthy and suitable for flow cytometry analysis.
Table 2 summarizes EC50 and EC90 values obtained from the model fitting.

Compound	dose-response behaviour of FoxP3+/CD4+ T-cells
N[C@@H](CNC(=O)Cc1ccc(OCc2ccccc2)cc1)C(=O)O [Compound 1, (S)-2-amino-3-(2-(4-(benzyloxy)phenyl)acetamido)propanoic acid]	dose-dependent increase in FoxP3+/CD4+ T-cells
N[C@@H](CNC(=O)Cc1ccc(OCc2cccc3ccccc23)cc1)C(=O)O [Compound 2, (S)-2-Amino-3-(2-(4-(naphthalen-1-ylmethoxy)phenyl)acetamido)propanoic acid]	dose-dependent increase in FoxP3+/CD4+ T-cells
N[C@@H](CNC(=O)Cc1ccc(OC(c2ccccc2)c2ccccc2)cc1)C(=O)O [Compound 3, (S)-2-amino-3-(2-(4-(benzhydryloxy)phenyl)acetamido)propanoic acid]	dose-dependent increase in FoxP3+/CD4+ T-cells
